{"source": "paper PMC4917448", "about": "(Journal of biomolecular screening, 2016)", "key": {"human neural stem cells": {"system": "human neural stem cells", "assay": "CellTiter-Glo cell viability assay in hNSC", "format": "cell-based", "conditions": "1 h, read-out: Viability: IC50, hNSC"}, "HCT116 cells": {"system": "HCT116 cells", "assay": "CellTiter-Glo cell viability assay in HCT116", "format": "cell-based", "conditions": "Homo sapiens, HCT-116, 1 h, read-out: Viability: IC50, HCT116"}, "[1]": {"system": "class I and II HDAC enzymes", "assay": "Panel of fluorogenic assays against ten class I and II HDAC isoforms", "format": "biochemical, human", "conditions": "20 μM"}}}
{"smiles": "CNC(=O)c1ccccc1Sc1ccc2c(/C=C/c3ccccn3)n[nH]c2c1", "note": "[Axitinib]", "values": [{"measurement": "IC50", "setting": "human neural stem cells", "value": "26.8 ± 6.13", "unit": "µM"}, {"measurement": "IC50", "setting": "HCT116 cells", "value": "26.7 ± 10.3", "unit": "µM"}]}
{"smiles": "O=C(CCCCCCC(=O)Nc1ccccc1)NO", "note": "[Vorinostat, suberoylanilide hydroxamic acid]", "values": [{"measurement": "inhibition against all class I and II HDAC enzymes", "setting": "[1]", "value": "over 80%"}, {"measurement": "inhibition of HDAC isoforms (in words)", "setting": "[1]; Figure 3", "value": "inhibited activities of all isoforms"}]}
